# Assay results reported in patent US11730741B2, “6-chromanol derivatives for use as a medicament” (Sulfateq B.V., priority 2017, dated 2023).
# At least one read-out could not be matched to a standard name with certainty.
# Test system: isolated porcine intrarenal arteries
# Assay: Myography: phenylephrine-induced constriction of isolated porcine intrarenal arteries
# Conditions: cumulative PE dose response curves
# Protocol: Porcine kidneys were obtained from a local slaughterhouse (Kroon Vlees, Gotenburgweg 30, 9723 ™ Groningen, The Netherlands) and transported on ice in normal physiological Krebs buffer containing 120 mM NaCl, 6 mM KCl, 2.5 mM CaCl2×2H2O, 1.2 mM MgCl2×6H2O, 1.2 mM NaH2PO4×H2O, 25 mM NaHCO3 and 11.4 mM D-(+)-Glucose monohydrate (all ingredients were purchased from Merck) in ultrapure water.
# The renal artery tree was dissected from the kidney, cleaned of surrounding connective tissue and cut into equally-sized ring segments (2 mm in length). In some rings, endothelium denudation was performed by gentle rubbing of the intimal surface with a paper clip. Rings were mounted in organ baths as described previously (Buikema et al., 2000).
# Arterial rings were washed thoroughly by replacing Krebs buffer and allowed to equilibrate for a period of 60 min under 1.4 g of resting tension before they were assessed for viability by inducing 2 subsequent constrictions with KCl (60 mM). […] After washout and stabilization, rings were treated for 30 minutes by incubation with vehicle (0.1% DMSO), SUL-121, SUL-150 or SUL-151, followed by subsequent incubation with cumulative doses of phenylephrine.
# Dose-dependent constriction responses to phenylephrine (10^−8M-10^−4M) were recorded in isolated porcine intrarenal arteries. Buffer was warmed to 37° C. and aerated with 95% O2 and 5% CO2 before use.
# Vascular constriction responses are expressed as percentage of final response to KCl. Data are expressed as mean±SEM. *p<0.05.
# To explore the effects of 2R and 2S-(6-hydroxy-2,5,7,8-tetramethylchroman-2-yl)(piperazin-1-yl)methanone (resp. SUL-150 and SUL-151) on constriction of isolated porcine intrarenal arteries, cumulative dose response curves to the α1 adrenoceptor agonist phenylephrine (PE) were constructed in the presence and absence of SUL-150 resp SUL-151 (FIG. 1).
row,"effect on phenylephrine (PE)-induced vascular constriction (EC50 of PE), in words",SMILES
1,dose-dependent increase of EC50,"Cc1c(C)c2c(c(C)c1O)CCC(C)(C(=O)N1CCNCC1)O2 (racemic) [SUL-121, (6-hydroxy-2,5,7,8-tetramethylchroman-2-yl)(piperazin-1-yl)methanone]"
2,dose-dependent increase of EC50,"Cc1c(C)c2c(c(C)c1O)CCC(C)(C(=O)N1CCNCC1)O2 (stereo not drawn) [SUL-150, (6-hydroxy-2,5,7,8-tetramethylchroman-2-yl)(piperazin-1-yl)methanone]"
3,no significant effects,"Cc1c(C)c2c(c(C)c1O)CC[C@@](C)(C(=O)N1CCNCC1)O2 [SUL-151, (2S)(6-hydroxy-2,5,7,8-tetramethylchroman-2-yl)(piperazin-1-yl)methanone]"
